Test results published in the supplement of paper PMC3334620.
The full ranking holds about 33,000 sequences; the median of “E-score (-0.5 to 0.5)” is about -0.0059, and the highest 2% start at about 0.26. The list shows a part of the results.

The sequences below were run against T1, Cin5 (UniProt P40917) (assay: PBM E-score (8-mer binding enrichment) (E-score (-0.5 to 0.5)); higher = stronger / more preferred TF binding). Conditions: protein concentration: 100 nM; construct: GST-full length.
T1 sequence: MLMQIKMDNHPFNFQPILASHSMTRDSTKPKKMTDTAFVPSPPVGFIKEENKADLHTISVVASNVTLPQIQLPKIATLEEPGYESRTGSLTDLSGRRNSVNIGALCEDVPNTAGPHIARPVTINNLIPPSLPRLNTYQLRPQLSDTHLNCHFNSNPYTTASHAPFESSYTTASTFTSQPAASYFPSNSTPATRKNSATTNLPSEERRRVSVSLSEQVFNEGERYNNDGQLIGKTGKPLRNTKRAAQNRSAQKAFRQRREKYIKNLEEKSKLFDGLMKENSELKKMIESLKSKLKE
Procedure, shortened: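 E-scores (a modified Wilcoxon-Mann-Whitney statistic) were assigned by the Universal PBM Analysis Suite to every ungapped eight-base word pooled with its reverse complement. The input came from universal all-10-mer Agilent arrays made double-stranded by primer extension and probed with GST-tagged yeast transcription factors at about 100-200 nM. Fluorescent anti-GST detected bound protein, and masliner normalised the scans.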

Sequence | PBM E-score
CCTTAGTA | -0.0198
CAACGACA | 0.141
AACTCCGC | -0.0915
CAGACCTA | -0.107
CGGAGCAC | -0.121
CGCAAGGC | 0.0896
ATCCTACA | -0.136
ATCATGCG | -0.0193
CGCGGGTC | -0.025
ACGGGGAG | -0.159
CGTAACAG | 0.159
ATTCAAAG | 0.04
GGCTAAAC | -0.00393
TGGTTGAA | -0.0193
GATAAATA | 0.245
CACCGAAG | 0.0977
ATGATCCC | 0.022
AACGTCAC | -0.0218
GGATTATA | 0.131
GGGCGCAA | -0.116
AAATTCAC | 0.11
AGTTCGAG | 0.0936

Sequence | PBM E-score
GTGCGCCA | -0.16
GTAAAAAA | 0.0416
TGGCTAAA | -0.00971
CTCTGCAA | 0.0751
ATTCCTAA | 0.0773
TGTCATAA | 0.111
GCGACTCC | -0.33
GATCAAAA | -0.00848
CGACGTTC | -0.268
AAACGAAG | 0.0268
AGACAGAT | 0.277
AGCAATGC | 0.113
AGTCGATA | 0.0851
AGATGGGA | -0.0624
ATAAGGCC | -0.0777
AACTCTTG | -0.0911
AGTCTGGG | -0.284
AACACGGC | -0.0562
ACCGGTTG | -0.117
CGTCTCTC | -0.019
ACTCTTCA | 0.0764
ACCAGTCT | -0.11

Sequence | PBM E-score
CACTAATG | 0.0736
ACGTCTGG | -0.0539
GTGACGCA | -0.115
AAGTATAC | 0.153
ACTTGAAC | -0.00791
ACTCCCCC | -0.389
ATCTTAGA | 0.121
ATTATGTA | 0.42
CATAATGG | 0.0936
GTCGAATA | 0.0797
GATATGAA | 0.0853
ATACGCTA | 0.0784
AGACGGAG | 0.0487
CCGTTACC | 0.0192
CACAGCGA | 0.0258
CGCAGATA | 0.0282
ATCTCGAC | 0.0547
GAATGGCA | 0.00941
CAGGAGGA | -0.315
GACTACAA | -0.0163
ACGAGCGA | 0.0185
TAACGAAA | 0.246

Sequence | PBM E-score
AGGCAGTA | -0.15
GGCAACAC | -0.0192
GAACATAC | 0.119
ACAAAAAC | 0.107
TCCGTACA | 0.0845
GTATCTAA | 0.153
ATAATCGG | 0.291
ATCTGATG | 0.0461
ATACCATC | 0.175
CCTTGTTA | -0.0571
GCGGAAAC | 0.0316
AGTCGTTA | -0.031
ACGGTGTA | 0.0405
CGTCCCCC | -0.414
GCGCACAA | 0.115
AAGAATAT | 0.0301
CTAGTTGC | 0.00128
GAGCGATA | -0.054
ACAGTGCG | -0.0585
ACTCCTCG | -0.0384

Reprinted at random: 3 records from the list, in no set order.
Sequence | PBM E-score
ACAAAAAC | 0.107
AGGCAGTA | -0.15
AGTCGTTA | -0.031
